For the test, the target named is Bcl-2 associated athanogene 3 (BAG3) (human) (UniProt O95817). The test is described as follows: co-IP; Lysates of HepG2 cells; primary antibody or IgG overnight at 4 °C, Protein-A/G beads, Western blot; lysis buffer 20 mM Tris-HCl, 150 mM NaCl, 2 mM EDTA, 1% NP-40. Background: Immunoblotting shows a protein as a band on a membrane.

The chains behind the UniProt entries cited, without tags or fusion partners. Residues count along the entry.
UniProt O95817: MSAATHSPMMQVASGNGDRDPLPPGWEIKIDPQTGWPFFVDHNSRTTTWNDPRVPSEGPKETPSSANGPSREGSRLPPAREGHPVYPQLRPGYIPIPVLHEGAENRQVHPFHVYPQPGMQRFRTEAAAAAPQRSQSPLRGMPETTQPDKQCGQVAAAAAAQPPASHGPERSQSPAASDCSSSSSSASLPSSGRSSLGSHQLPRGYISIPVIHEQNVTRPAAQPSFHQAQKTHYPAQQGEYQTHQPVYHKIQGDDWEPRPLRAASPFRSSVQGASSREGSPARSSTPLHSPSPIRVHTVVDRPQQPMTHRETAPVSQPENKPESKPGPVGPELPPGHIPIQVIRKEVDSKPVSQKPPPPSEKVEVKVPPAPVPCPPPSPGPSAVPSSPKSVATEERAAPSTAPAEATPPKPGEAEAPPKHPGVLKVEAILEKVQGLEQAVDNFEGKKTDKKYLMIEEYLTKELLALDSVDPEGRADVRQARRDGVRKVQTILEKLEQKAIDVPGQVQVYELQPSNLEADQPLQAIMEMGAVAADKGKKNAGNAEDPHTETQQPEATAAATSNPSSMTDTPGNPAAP
UniProt O94925, residues 55-669: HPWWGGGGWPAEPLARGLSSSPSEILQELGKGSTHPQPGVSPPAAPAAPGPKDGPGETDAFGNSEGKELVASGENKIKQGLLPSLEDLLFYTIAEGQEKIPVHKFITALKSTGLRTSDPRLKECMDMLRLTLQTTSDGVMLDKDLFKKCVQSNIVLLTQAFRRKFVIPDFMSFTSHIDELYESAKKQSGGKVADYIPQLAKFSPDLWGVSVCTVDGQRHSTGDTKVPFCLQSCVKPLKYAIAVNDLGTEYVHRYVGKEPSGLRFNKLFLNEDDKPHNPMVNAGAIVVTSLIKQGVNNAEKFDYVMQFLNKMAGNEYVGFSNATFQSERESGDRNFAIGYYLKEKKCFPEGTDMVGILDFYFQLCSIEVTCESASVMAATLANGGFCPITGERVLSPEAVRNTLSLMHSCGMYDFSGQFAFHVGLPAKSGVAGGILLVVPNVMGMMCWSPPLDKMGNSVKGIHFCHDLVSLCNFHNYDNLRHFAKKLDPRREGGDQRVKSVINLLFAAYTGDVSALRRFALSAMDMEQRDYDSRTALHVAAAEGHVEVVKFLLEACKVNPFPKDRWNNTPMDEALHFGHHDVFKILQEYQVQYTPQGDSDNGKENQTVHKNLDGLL

No constants are given. Whether binding was seen depends on the method and setting. In cells and extracts the contact can be indirect. Some entries that bind do so weakly or less than the wild type.

Take “glutaminase (GLS) (from UniProt O94925 55-669) (enzyme)”: the binding result was “binds”.

Values taken from PMC6433946.
